Holding throughout (experiment): proximity labelling
The target in assay [1] is T1, VE-cadherin-BioID (VE-cadherin tagged at the C-terminus with BirA* and an HA-tag) (human) (UniProt P33151).
T1 sequence: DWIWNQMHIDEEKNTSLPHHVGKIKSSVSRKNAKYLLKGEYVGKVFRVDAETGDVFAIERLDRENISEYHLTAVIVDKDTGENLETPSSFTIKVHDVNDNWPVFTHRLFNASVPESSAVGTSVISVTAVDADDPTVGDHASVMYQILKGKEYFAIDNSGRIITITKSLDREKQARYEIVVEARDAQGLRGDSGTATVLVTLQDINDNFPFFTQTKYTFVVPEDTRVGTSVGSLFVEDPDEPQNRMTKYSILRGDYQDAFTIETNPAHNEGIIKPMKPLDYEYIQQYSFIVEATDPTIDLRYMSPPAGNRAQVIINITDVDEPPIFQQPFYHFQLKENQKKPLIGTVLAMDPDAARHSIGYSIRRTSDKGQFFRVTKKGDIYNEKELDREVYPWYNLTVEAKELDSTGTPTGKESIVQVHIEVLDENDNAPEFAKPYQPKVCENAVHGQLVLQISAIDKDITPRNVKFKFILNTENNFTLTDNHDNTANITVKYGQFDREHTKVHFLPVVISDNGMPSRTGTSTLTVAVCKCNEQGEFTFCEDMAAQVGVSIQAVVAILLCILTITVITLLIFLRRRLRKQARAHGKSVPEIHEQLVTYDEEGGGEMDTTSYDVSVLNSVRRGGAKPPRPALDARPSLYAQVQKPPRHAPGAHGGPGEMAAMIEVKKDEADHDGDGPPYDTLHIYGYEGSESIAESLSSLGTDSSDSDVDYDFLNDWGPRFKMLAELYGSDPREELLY

Sequences of proteins named here, by UniProt entry; tags and fusion partners are left off.
UniProt Q8TDM6: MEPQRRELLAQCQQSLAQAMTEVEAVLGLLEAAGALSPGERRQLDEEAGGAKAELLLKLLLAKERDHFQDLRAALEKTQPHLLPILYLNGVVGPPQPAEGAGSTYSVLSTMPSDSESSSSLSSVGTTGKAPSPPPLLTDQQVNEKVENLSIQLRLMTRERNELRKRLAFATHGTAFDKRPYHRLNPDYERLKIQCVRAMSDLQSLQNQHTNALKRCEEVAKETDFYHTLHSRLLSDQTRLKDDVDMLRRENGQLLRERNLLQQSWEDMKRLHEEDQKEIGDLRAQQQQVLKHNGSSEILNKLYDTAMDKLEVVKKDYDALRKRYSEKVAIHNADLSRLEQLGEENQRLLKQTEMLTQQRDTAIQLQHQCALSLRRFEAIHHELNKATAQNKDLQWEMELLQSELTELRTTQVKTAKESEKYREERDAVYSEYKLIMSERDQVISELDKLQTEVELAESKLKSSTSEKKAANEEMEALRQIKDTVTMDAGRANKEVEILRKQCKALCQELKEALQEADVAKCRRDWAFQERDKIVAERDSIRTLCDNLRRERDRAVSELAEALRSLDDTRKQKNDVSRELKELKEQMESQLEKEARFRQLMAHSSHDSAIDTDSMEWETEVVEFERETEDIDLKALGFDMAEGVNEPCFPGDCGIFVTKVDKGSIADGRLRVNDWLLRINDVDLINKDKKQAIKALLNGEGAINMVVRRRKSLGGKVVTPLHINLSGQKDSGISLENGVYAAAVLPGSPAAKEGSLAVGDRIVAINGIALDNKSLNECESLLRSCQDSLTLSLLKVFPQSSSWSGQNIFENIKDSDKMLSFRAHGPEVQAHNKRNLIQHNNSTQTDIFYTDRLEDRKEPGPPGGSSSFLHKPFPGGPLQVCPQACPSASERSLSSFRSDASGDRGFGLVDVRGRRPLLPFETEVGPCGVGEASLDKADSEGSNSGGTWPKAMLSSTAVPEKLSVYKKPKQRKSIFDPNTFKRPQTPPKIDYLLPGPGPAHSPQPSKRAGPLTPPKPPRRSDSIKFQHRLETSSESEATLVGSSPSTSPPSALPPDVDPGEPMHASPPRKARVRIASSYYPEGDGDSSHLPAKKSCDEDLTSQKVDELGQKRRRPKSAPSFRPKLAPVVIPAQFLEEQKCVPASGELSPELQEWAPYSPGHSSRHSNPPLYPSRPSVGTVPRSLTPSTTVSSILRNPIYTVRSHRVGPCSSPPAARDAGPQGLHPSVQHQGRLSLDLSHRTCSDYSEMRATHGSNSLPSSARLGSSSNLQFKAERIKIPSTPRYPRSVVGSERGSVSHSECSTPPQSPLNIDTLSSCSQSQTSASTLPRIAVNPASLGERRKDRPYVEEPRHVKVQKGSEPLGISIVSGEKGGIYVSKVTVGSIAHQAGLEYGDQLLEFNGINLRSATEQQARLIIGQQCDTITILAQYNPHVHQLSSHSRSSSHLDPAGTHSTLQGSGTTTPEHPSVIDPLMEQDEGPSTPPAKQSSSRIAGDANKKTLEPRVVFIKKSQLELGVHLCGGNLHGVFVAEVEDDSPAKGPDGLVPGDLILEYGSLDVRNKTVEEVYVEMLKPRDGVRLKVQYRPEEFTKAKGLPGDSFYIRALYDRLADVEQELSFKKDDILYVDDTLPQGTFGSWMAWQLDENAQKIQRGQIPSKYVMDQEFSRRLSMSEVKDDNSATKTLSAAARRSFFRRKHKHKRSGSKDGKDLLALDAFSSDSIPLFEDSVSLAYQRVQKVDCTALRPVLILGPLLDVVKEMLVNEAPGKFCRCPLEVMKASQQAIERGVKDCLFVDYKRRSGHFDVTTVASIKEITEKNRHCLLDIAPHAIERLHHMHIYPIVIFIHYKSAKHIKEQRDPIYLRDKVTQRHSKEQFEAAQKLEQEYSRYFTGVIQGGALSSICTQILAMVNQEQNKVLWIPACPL
UniProt Q14160: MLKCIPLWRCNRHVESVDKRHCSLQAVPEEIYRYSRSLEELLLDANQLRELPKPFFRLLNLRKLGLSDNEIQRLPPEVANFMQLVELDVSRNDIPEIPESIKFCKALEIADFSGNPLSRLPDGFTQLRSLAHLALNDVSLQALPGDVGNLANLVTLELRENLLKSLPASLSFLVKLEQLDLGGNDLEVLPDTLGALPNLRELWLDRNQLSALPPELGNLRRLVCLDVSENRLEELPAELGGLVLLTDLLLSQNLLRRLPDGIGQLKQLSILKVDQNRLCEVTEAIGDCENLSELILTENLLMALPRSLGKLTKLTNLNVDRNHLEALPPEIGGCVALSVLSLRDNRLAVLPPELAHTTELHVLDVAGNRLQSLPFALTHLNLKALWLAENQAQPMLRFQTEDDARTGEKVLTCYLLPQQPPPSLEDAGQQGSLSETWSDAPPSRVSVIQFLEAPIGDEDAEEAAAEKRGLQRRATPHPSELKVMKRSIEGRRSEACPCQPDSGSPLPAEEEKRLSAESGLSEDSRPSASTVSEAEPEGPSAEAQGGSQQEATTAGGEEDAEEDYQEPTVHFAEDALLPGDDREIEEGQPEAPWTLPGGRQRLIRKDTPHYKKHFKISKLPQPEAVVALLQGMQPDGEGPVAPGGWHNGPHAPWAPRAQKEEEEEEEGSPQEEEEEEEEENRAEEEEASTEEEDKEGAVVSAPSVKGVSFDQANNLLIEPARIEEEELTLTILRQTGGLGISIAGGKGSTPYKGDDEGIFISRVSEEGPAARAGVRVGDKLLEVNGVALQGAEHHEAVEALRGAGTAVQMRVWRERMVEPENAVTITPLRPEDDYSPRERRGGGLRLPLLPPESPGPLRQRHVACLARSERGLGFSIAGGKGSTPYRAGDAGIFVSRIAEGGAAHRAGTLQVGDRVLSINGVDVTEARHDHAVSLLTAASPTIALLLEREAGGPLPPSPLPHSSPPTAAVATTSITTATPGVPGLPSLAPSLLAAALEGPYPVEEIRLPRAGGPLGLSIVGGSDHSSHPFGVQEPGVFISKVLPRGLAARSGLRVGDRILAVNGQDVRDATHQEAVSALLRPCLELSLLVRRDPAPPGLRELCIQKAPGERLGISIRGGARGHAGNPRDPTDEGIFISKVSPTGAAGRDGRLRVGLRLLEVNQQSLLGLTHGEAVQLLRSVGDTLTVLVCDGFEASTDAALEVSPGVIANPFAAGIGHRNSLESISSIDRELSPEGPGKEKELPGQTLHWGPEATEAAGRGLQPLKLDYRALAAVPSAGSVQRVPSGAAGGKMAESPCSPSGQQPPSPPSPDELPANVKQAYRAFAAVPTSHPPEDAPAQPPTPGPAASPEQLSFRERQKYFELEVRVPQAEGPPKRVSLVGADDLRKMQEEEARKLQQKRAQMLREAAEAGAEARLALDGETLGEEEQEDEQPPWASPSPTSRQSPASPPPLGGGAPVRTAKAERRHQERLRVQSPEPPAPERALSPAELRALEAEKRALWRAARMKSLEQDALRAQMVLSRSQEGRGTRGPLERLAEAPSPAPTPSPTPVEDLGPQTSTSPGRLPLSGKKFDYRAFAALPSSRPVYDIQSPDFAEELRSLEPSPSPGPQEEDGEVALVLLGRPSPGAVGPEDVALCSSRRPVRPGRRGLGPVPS
UniProt P35221: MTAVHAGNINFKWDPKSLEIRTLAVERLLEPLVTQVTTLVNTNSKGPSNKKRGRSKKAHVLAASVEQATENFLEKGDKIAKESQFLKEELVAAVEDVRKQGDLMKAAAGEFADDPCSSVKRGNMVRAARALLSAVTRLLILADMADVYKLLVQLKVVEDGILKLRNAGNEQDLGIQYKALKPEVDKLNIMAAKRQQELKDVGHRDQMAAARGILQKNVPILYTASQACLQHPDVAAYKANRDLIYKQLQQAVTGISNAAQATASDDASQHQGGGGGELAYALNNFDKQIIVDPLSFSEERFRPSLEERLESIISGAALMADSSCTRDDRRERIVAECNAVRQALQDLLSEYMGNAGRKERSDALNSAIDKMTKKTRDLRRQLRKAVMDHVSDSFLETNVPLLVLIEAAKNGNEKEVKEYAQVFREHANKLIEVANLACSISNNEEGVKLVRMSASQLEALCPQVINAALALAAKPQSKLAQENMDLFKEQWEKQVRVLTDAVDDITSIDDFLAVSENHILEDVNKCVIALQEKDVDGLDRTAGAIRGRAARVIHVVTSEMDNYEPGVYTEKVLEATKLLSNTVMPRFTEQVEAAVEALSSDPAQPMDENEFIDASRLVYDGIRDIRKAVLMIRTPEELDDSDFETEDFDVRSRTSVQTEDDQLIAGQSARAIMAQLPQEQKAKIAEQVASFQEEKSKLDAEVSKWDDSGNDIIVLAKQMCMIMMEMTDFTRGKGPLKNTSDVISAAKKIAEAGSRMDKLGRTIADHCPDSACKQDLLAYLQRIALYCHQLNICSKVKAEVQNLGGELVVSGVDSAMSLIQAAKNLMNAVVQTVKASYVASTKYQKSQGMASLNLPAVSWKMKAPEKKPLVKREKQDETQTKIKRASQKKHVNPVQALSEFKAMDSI

For assay [2], the target named is T1, VE-cadherin-BioID (VE-cadherin tagged at the C-terminus with BirA* and an HA-tag) (human). The source holds these as a separate data set.
Assay [3] addresses T2, VE-cadherin-BioID (VE-cadherin tagged at the C-terminus with BirA* and an HA-tag) (human), P33151.
T2 chain: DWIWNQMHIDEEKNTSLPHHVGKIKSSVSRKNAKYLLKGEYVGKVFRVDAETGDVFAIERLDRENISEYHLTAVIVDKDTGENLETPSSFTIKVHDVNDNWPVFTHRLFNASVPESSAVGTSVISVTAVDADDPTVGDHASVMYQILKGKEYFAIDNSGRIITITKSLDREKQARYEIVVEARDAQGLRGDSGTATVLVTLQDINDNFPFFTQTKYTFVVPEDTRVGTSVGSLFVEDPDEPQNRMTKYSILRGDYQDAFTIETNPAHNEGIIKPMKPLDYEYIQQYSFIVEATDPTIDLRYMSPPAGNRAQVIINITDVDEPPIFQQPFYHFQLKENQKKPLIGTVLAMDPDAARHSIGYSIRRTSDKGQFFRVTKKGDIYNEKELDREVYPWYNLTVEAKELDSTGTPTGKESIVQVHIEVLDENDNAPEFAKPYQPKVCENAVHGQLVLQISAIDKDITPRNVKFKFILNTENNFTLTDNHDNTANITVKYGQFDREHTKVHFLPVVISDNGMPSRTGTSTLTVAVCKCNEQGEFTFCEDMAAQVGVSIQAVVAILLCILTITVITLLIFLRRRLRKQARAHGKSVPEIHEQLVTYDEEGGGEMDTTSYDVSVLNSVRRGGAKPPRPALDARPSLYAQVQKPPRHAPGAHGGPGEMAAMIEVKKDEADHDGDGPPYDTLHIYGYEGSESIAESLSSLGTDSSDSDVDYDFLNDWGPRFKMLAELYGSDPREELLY
The conditions noted are these: remark: other sources report otherwise.

Read-outs that look alike come from different tables or passages of the source. Results are given in words; binding and its absence hold for the method and conditions named. Binding seen in cells or lysates may run through a third protein. A yes stands for co-enrichment or nearness to the bait. Other partners may have been found. Where a sequence is shown, tags or fusion partners need not be part of it.

With “Disks large 5 (DLG5) (from UniProt Q8TDM6 1-1919)”, the binding result in assay [1] is “binds”.

For “Scribble (Scrib) (from UniProt Q14160 1-1655)”, the binding result in assay [1] and in assay [2] was “binds” throughout.

Regarding α-catenin (from UniProt P35221 1-906), the binding result in assay [1] is listed as “binds”.

B1: p120 catenin (protein, UniProt O60716 1-968)
chain: MDDSEVESTASILASVKEQEAQFEKLTRALEEERRHVSAQLERVRVSPQDANPLMANGTLTRRHQNGRFVGDADLERQKFSDLKLNGPQDHSHLLYSTIPRMQEPGQIVETYTEEDPEGAMSVVSVETSDDGTTRRTETTVKKVVKTVTTRTVQPVAMGPDGLPVDASSVSNNYIQTLGRDFRKNGNGGPGPYVGQAGTATLPRNFHYPPDGYSRHYEDGYPGGSDNYGSLSRVTRIEERYRPSMEGYRAPSRQDVYGPQPQVRVGGSSVDLHRFHPEPYGLEDDQRSMGYDDLDYGMMSDYGTARRTGTPSDPRRRLRSYEDMIGEEVPSDQYYWAPLAQHERGSLASLDSLRKGGPPPPNWRQPELPEVIAMLGFRLDAVKSNAAAYLQHLCYRNDKVKTDVRKLKGIPVLVGLLDHPKKEVHLGACGALKNISFGRDQDNKIAIKNCDGVPALVRLLRKARDMDLTEVITGTLWNLSSHDSIKMEIVDHALHALTDEVIIPHSGWEREPNEDCKPRHIEWESVLTNTAGCLRNVSSERSEARRKLRECDGLVDALIFIVQAEIGQKDSDSKLVENCVCLLRNLSYQVHREIPQAERYQEAAPNVANNTGPHAASCFGAKKGKDEWFSRGKKPIEDPANDTVDFPKRTSPARGYELLFQPEVVRIYISLLKESKTPAILEASAGAIQNLCAGRWTYGRYIRSALRQEKALSAIADLLTNEHERVVKAASGALRNLAVDARNKELIGKHAIPNLVKNLPGGQQNSSWNFSEDTVISILNTINEVIAENLEAAKKLRETQGIEKLVLINKSGNRSEKEVRAAALVLQTIWGYKELRKPLEKEGWKKSDFQVNLNNASRSQSSHSYDDSTLPLIDRNQKSDKKPDREEIQMSNMGSNTKSLDNNYSTPNERGDHNRTLDRSGDLGDMEPLKGTTPLMQDEGQESLEEELDVLVLDDEGGQVSYPSMQKI
For B1, in assay [1], the binding result was “binds”.

B2: β-catenin, P35222 1-781 (protein)
chain: MATQADLMELDMAMEPDRKAAVSHWQQQSYLDSGIHSGATTTAPSLSGKGNPEEEDVDTSQVLYEWEQGFSQSFTQEQVADIDGQYAMTRAQRVRAAMFPETLDEGMQIPSTQFDAAHPTNVQRLAEPSQMLKHAVVNLINYQDDAELATRAIPELTKLLNDEDQVVVNKAAVMVHQLSKKEASRHAIMRSPQMVSAIVRTMQNTNDVETARCTAGTLHNLSHHREGLLAIFKSGGIPALVKMLGSPVDSVLFYAITTLHNLLLHQEGAKMAVRLAGGLQKMVALLNKTNVKFLAITTDCLQILAYGNQESKLIILASGGPQALVNIMRTYTYEKLLWTTSRVLKVLSVCSSNKPAIVEAGGMQALGLHLTDPSQRLVQNCLWTLRNLSDAATKQEGMEGLLGTLVQLLGSDDINVVTCAAGILSNLTCNNYKNKMMVCQVGGIEALVRTVLRAGDREDITEPAICALRHLTSRHQEAEMAQNAVRLHYGLPVVVKLLHPPSHWPLIKATVGLIRNLALCPANHAPLREQGAIPRLVQLLVRAHQDTQRRTSMGGTQQQFVEGVRMEEIVEGCTGALHILARDVHNRIVIRGLNTIPLFVQLLYSPIENIQRVAAGVLCELAQDKEAAEAIEAEGATAPLTELLHSRNEGVATYAAAVLFRMSEDKPQDYKKRLSVELTSSLFRTEPMAWNETADLGLDIGAQGEPLGYRQDDPSYRSFHSGGYGQDALGMDPMMEHEMGGHHPGADYPVDGLPDLGHAQDLMDGLPPGDSNQLAWFDTDL
Take B2: the binding entry in assay [3] is recorded as “binds”.

B3: junction plakoglobin (protein, UniProt P14923 1-745)
chain: MEVMNLMEQPIKVTEWQQTYTYDSGIHSGANTCVPSVSSKGIMEEDEACGRQYTLKKTTTYTQGVPPSQGDLEYQMSTTARAKRVREAMCPGVSGEDSSLLLATQVEGQATNLQRLAEPSQLLKSAIVHLINYQDDAELATRALPELTKLLNDEDPVVVTKAAMIVNQLSKKEASRRALMGSPQLVAAVVRTMQNTSDLDTARCTTSILHNLSHHREGLLAIFKSGGIPALVRMLSSPVESVLFYAITTLHNLLLYQEGAKMAVRLADGLQKMVPLLNKNNPKFLAITTDCLQLLAYGNQESKLIILANGGPQALVQIMRNYSYEKLLWTTSRVLKVLSVCPSNKPAIVEAGGMQALGKHLTSNSPRLVQNCLWTLRNLSDVATKQEGLESVLKILVNQLSVDDVNVLTCATGTLSNLTCNNSKNKTLVTQNSGVEALIHAILRAGDKDDITEPAVCALRHLTSRHPEAEMAQNSVRLNYGIPAIVKLLNQPNQWPLVKATIGLIRNLALCPANHAPLQEAAVIPRLVQLLVKAHQDAQRHVAAGTQQPYTDGVRMEEIVEGCTGALHILARDPMNRMEIFRLNTIPLFVQLLYSSVENIQRVAAGVLCELAQDKEAADAIDAEGASAPLMELLHSRNEGTATYAAAVLFRISEDKNPDYRKRVSVELTNSLFKHDPAAWEAAQSMIPINEPYGDDMDATYRPMYSSDVPLDPLEMHMDMDGDYPIDTYSDGLRPPYPTADHMLA
For B3, in assay [1], the binding entry was “binds”.

(Values after publication doi:10.1101/2025.04.01.645927.)
